Source: patent US10526389B2, “Peptides and combinations of peptides for use in immunotherapy against lung cancer, including NSCLC and other cancers” (Immatics Biotechnologies GmbH, priority 2015, dated 2020)
For part of these data: Expression grades refer to the transcript from which the peptide derives; gene names, where given, were looked up from the sequence.

Key:
[1] = system: source genes of the peptides (mRNA) in tumors vs normal tissues; experiment: Expression profiling of genes encoding the peptides (Affymetrix microarray); design: species or system human; key: very highly over-expressed in tumors compared to a panel of normal tissues (+++); highly over-expressed in tumors compared to a panel of normal tissues (++); over-expressed in tumors compared to a panel of normal tissues (+); conditions: tumors compared to a panel of normal tissues
[2] = system: HLA-A*02-positive lung cancer (NSCLC) samples; experiment: Relative LC-MS quantitation of HLA-A*02 peptide presentation on tumors vs normal tissues; design: species or system human; conditions: for Additional Entities (additional tumor types showing over-presentation) / Other relevant organs/diseases (additional tumour types on which the peptide was found): HLA-A*02 peptides; for Additional Entities (additional tumor types showing over-presentation): amendment of Table 9, >5% of measured tumor samples or ratio of geometric means tumor vs normal >3; for Other relevant organs/diseases (additional tumour types on which the peptide was found): over-presented on >5% of measured tumour samples, or presented on >5% with ratio of geometric means tumour vs normal >3
[3] = system: HLA-A*24-positive lung cancer (NSCLC) samples; experiment: Relative LC-MS quantitation of HLA-A*24 peptide presentation on tumors vs normal tissues; design: species or system human; conditions: HLA-A*24 peptides; over-presented on >5% of measured tumor samples, or presented on >5% with ratio of geometric means tumor vs normal >3
[4] = system: HLA-A*24-positive lung cancer (NSCLC) samples; experiment: as above; design: species or system human; key: very highly over-presented on tumors compared to a panel of normal tissues (+++); highly over-presented on tumors compared to a panel of normal (healthy) tissues (++); over-presented on tumors compared to a panel of normal tissues (+); conditions: HLA-A*24 peptides; tumors compared to a panel of normal tissues

Substance | Gene Expression (expression score of source gene) ([1]; HLA-A*02 peptides) | Other relevant organs/diseases (additional tumour types on which the peptide was found) [2] | also measured
8: peptide found in UBA6 (gene looked up) (ALLNILSEV; listed as Homo sapiens) [compound 8] | ++ | Brain, Liver, Prostate, Ovary | Additional Entities (additional tumor types showing over-presentation) [2]: SCLC, BRCA, Esophageal Cancer, Urinary bladder cancer, Uterine Cancer
120: peptide found in IGF2BP3 (gene looked up) (KIQEILTQV; listed as Homo sapiens) [compound 120] | ++ | Kidney, Brain, Stomach, Colon, Rectum, Liver, Pancreas, Leukocytes, Ovary, Esophagus | 
119: peptide found in FN1 (gene looked up) (IVDDITYNV; listed as Homo sapiens) [compound 119] | + | Liver, Pancreas, Breast, Esophagus | 
12: peptide found in SLC1A4 (gene looked up) (IVDRTTTVV; listed as Homo sapiens) [compound 12] | + |  | 
35: peptide found in ITGA2 (gene looked up) (TYNPEIYVI; listed as Homo sapiens) [compound 35] |  |  | Gene Expression (expression score of source gene) ([1]; HLA-A*24 peptides): +
106: peptide found in MCM4 (gene looked up) (SILEHQIQV; listed as Homo sapiens) [compound 106] | ++ | Kidney | Additional Entities (additional tumor types showing over-presentation) [2]: CRC, BRCA, Esophageal Cancer, Urinary bladder cancer, Uterine Cancer, AML, NHL
2: peptide found in SLC6A14 (gene looked up) (FLIPYAIML; listed as Homo sapiens) [compound 2] | ++ | Stomach, Colon, Rectum, Pancreas | peptide was also found on (other cancers, not shown) ([2]; FIG. 1A, 1B legends, A*02): pancreatic cancer, gastric cancer, colorectal cancer, esophageal cancer; Additional Entities (additional tumor types showing over-presentation) [2]: SCLC, PC, Urinary bladder cancer, Gallbladder Cancer, Bile Duct Cancer
108: peptide found in UBA6 (gene looked up) (TLLDFINAV; listed as Homo sapiens) [compound 108] | ++ |  | Additional Entities (additional tumor types showing over-presentation) [2]: NHL
5: peptide found in GPNMB (gene looked up) (ALTSTLISV; listed as Homo sapiens) [compound 5] | + | Breast, Melanoma, Esophagus | 
43: peptide found in ALOX15B (gene looked up) (RYTLHINTL; listed as Homo sapiens) [compound 43] |  |  | Gene Expression (expression score of source gene) ([1]; HLA-A*24 peptides): +; Other relevant organs/diseases (additional tumor types on which the peptide was found) [3]: Prostate
95: peptide found in MSH6 (gene looked up) (KIIGIMEEV; listed as Homo sapiens) [compound 95] | ++ | Kidney, MCC, Esophagus | Additional Entities (additional tumor types showing over-presentation) [2]: SCLC, Brain Cancer, GC, CRC, Melanoma, AML, NHL
24: peptide found in MMP12 (gene looked up) (NYPKSIHSF; listed as Homo sapiens) [compound 24] |  |  | Gene Expression (expression score of source gene) ([1]; HLA-A*24 peptides): +++
39: peptide found in DOCK2 (gene looked up) (KFLEHTNFEF; listed as Homo sapiens) [compound 39] |  |  | Gene Expression (expression score of source gene) ([1]; HLA-A*24 peptides): +; Other relevant organs/diseases (additional tumor types on which the peptide was found) [3]: Liver
31: peptide found in KRT10 (gene looked up) (SYLDKVRAL; listed as Homo sapiens) [compound 31] |  |  | Gene Expression (expression score of source gene) ([1]; HLA-A*24 peptides): +; Other relevant organs/diseases (additional tumor types on which the peptide was found) [3]: Stomach
11: peptide found in SMC4 (gene looked up) (YLNVQVKEL; listed as Homo sapiens) [compound 11] | ++ | Colon, Rectum, Liver | Additional Entities (additional tumor types showing over-presentation) [2]: SCLC, Melanoma, Esophageal Cancer, Urinary bladder cancer, Uterine Cancer, Gallbladder Cancer, Bile Duct Cancer, AML
34: peptide found in MMP1 (gene looked up) (VFMKDGFFYF; listed as Homo sapiens) [compound 34] |  |  | Gene Expression (expression score of source gene) ([1]; HLA-A*24 peptides): +
133: peptide found in KRT10 (gene looked up) (RLASYLDKV; listed as Homo sapiens) [compound 133] | + | Pancreas, Breast, Esophagus | 
130: peptide found in TPX2 (gene looked up) (KILEDVVGV; listed as Homo sapiens) [compound 130] | + | Kidney, Stomach, Colon, Rectum, Melanoma, Ovary, Esophagus | 

Substance | Gene Expression (expression score of source gene) ([1]; HLA-A*02 peptides) | Other relevant organs/diseases (additional tumour types on which the peptide was found) [2] | also measured
117: peptide found in CCNB1 (gene looked up) (ILIDWLVQV; listed as Homo sapiens) [compound 117] | + | Kidney, Brain, Stomach, Colon, Rectum, Liver, Pancreas, Melanoma, Ovary | 
30: peptide found in MMP1 (gene looked up) (KYLEKYYNL; listed as Homo sapiens) [compound 30] |  |  | Gene Expression (expression score of source gene) ([1]; HLA-A*24 peptides): +
143: peptide found in COPG1 (gene looked up) (AIVDKVPSV; listed as Homo sapiens) [compound 143] | + | Kidney, Liver, Pancreas, Prostate, Ovary, Esophagus | 
131: peptide found in CCNB1 (gene looked up) (ALVQDLAKA; listed as Homo sapiens) [compound 131] | + | Kidney, Stomach, Colon, Rectum, Liver, Pancreas, Ovary | 
97: peptide found in LPCAT1 (gene looked up) (TLFPVRLLV; listed as Homo sapiens) [compound 97] | + | Kidney, Leukocytes | 
19: peptide found in GPNMB (gene looked up) (VLTSDSPAL; listed as Homo sapiens) [compound 19] | + | Liver, Melanoma, Esophagus | 
142: peptide found in SLC34A2 (gene looked up) (VLLPVEVATHYL; listed as Homo sapiens) [compound 142] | ++ | Ovary | 
OLFML2B-002 (YYYGNTLVEF; listed as Homo sapiens) |  |  | Peptide Presentation (presentation score) [4]: +++
116: peptide found in MMP12 (gene looked up) (KIQEMQHFL; listed as Homo sapiens) [compound 116] | +++ | Colon, Rectum | 
105: peptide found in STAT1 (gene looked up) (IVAESLQQV; listed as Homo sapiens) [compound 105] | ++ | Kidney, Stomach, Pancreas, Breast, Ovary, Esophagus | Additional Entities (additional tumor types showing over-presentation) [2]: SCLC, Melanoma, NHL
KFLESKGYEF (listed as Homo sapiens) [SEQ ID No. 45] |  |  | Peptide Presentation (presentation score) [4]: +++
ZNF697-001 (TYLTNHLRL; listed as Homo sapiens) |  |  | Peptide Presentation (presentation score) [4]: +++
SLC-003 (RYFPTQALNF; listed as Homo sapiens) |  |  | Peptide Presentation (presentation score) [4]: +++
RASA2-001 (YYVDKLFNTI; listed as Homo sapiens) |  |  | Peptide Presentation (presentation score) [4]: +++
NUP153-001 (VYFKPSLTPSGEF; listed as Homo sapiens) |  |  | Peptide Presentation (presentation score) [4]: +++
115: peptide found in FAP (gene looked up) (YVYQNNIYL; listed as Homo sapiens) [compound 115] | + | Stomach, Colon, Rectum, Liver, Pancreas, Breast, Melanoma, Ovary, Esophagus | 
NYLLESPHRF (listed as Homo sapiens) [SEQ ID No. 51] |  |  | Peptide Presentation (presentation score) [4]: +++
DCSTA-001 (KYIEAIQWI; listed as Homo sapiens) |  |  | Peptide Presentation (presentation score) [4]: +++
